Reference: article PMC8176717
These are yes or no findings as the source states them, for the method shown. In cells and extracts the contact can be indirect. Some binding calls cover weakened binding; strength is not graded here.

The chains behind the UniProt entries cited, without tags or fusion partners.
UniProt P51809: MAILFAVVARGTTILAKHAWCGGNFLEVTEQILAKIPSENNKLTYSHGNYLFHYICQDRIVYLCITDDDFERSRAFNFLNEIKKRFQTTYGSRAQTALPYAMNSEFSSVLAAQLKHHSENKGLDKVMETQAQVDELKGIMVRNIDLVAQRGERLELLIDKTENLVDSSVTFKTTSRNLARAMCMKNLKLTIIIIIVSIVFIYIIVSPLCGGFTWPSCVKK

Biological target: vesicle associated membrane protein 7 (VAMP7) (human (endogenous in Huh7)) (UniProt P51809)
Experiment: co-IP; lysate of LINC00511-overexpressing Huh7 cells (lysed 48 h after transfection), anti-VAMP7 antibody or IgG, protein A/G-agarose beads, washed four times with lysis buffer; immunoblot for SNAP23

B1: synaptosome associated protein 23 (SNAP23) (protein, UniProt O00161 1-211)
chain: MDNLSSEEIQQRAHQITDESLESTRRILGLAIESQDAGIKTITMLDEQKEQLNRIEEGLDQINKDMRETEKTLTELNKCCGLCVCPCNRTKNFESGKAYKTTWGDGGENSPCNVVSKQPGPVTNGQLQQPTTGAASGGYIKRITNDAREDEMEENLTQVGSILGNLKDMALNIGNEIDAQNPQIKRITDKADTNRDRIDIANARAKKLIDS
**Q.** For B1, which binding is on record?
**A.** binds
